According to article PMC5351991:
No constants are given. Whether binding was seen depends on the method and setting. Binding seen in cells or lysates may run through a third protein. Some entries that bind do so weakly or less than the wild type. Sequences can lack the tags named with a protein.

Molecular target: T1, NIP1;1::35S-SPYNE (NIP1;1 full length fused to the N-terminal YFP fragment) (Arabidopsis thaliana) (UniProt Q8VZW1)
T1 sequence: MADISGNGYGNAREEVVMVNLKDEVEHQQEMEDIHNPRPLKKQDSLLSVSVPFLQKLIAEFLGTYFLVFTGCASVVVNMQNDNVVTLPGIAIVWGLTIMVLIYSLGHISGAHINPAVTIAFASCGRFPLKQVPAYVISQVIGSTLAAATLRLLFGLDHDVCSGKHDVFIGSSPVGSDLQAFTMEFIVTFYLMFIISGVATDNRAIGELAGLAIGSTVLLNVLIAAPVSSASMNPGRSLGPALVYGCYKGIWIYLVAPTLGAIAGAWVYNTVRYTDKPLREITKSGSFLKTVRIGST
Test: split reporter; BiFC with split YFP (SPYNE/SPYCE) in protoplasts of Arabidopsis suspension cultured cells, imaged by confocal microscopy after 16 h at 22°C

- binding: binds
B1: CPK31::35S-SPYCE (CPK31 full length fused to the C-terminal YFP fragment) (enzyme, UniProt Q9S9V0 1-484)
chain: MGCYSSKNLKQSKRTILEKPFVDIGKVYILGDELGQGQFGITRKCVEKTSGKTYACKTILKTNLKSREDEEAVKREIRIMKHLSGEPNIVEFKKAYEDRDSVHIVMEYCGGGELFKKIEALSKDGKSYSEKEAVEIIRPIVNVVKNCHYMGVMLRDLKPENFLLSSTDKNATVKAIDFGCSVFIEEGEVHRKFAGSAYYIAPEVLQGKYGKEADIWSAGIILYILLCGKPPFVTEPEAQMFSEIKSAKIDVDSESWKFIDVKAKHLVNRMLNRNPKERISAAEVLGHPWMKDGEASDKPIDGVVLSRLKQFRDMNKLKKVALKVIAANLSEEEIKGLKTLFTNIDTDKSGTITLEELKTGLTRLGSNLSKTEVEQLMEAADVDGNGTIDIDEFISATMHRYRLDRDDHVYQAFQHFDKDNDGHITKEELEMAMKEHGVGDEVSIKQIITEVDTDNDGKINFEEFRTMMRSGSSLQPQRELLPIK
